Values from PubChem BioAssay AID493246 (Drosophila RNAi Screening Center, 2011)

Test: 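Genes fly cells need to grow and stay alive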 (primary screen)
Cells: Drosophila Kc and S2R+ cells
Reagents: long dsRNA against Drosophila genes
Detection: 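Raw, unnormalised count of remaining cells in each well; per-plate z-scores of cell number underlie the calls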
Scale: Kc cell number and S2R+ cell number: higher = more cells remaining
Call rule: 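Counted as a hit if cell number falls by a z-score of at least 3 within its plate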
The screen tested about 21,000 reagents; below is an unselected part of those that have a named target and a result. In the full data, 429 (2%) are marked active. 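Values are raw and not normalised between plates; calls rest on per-plate z-scores that were not deposited.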 A number with no mark means an inactive call. A plus sign joins genes that one reagent is predicted to hit. The record does not give: the amount of reagent, the time to read-out.

After knock-down of CG46339 [DRSC14136], the record shows Kc cell number, rep 1 = 4.94e5; S2R+ cell number, rep 1 = 8.40e5.
Hsp70Bb + Hsp70Ba + Hsp70Bc + 1 more [DRSC21247] gave Kc cell number, rep 1 = 1.46e6; Kc cell number, rep 2 = 1.46e6; S2R+ cell number, rep 1 = 7.50e5; S2R+ cell number, rep 2 = 8.35e5.
For Hsp70Bb + Hsp70Ba + Hsp70Bc + 1 more [DRSC21248] the deposit lists Kc cell number, rep 1 = 1.45e6; Kc cell number, rep 2 = 1.42e6; S2R+ cell number, rep 1 = 7.27e5; S2R+ cell number, rep 2 = 8.28e5.
Silencing of CG14929 + CG4970 + CG14930 [DRSC02412] came out at: Kc cell number, rep 1 = 1.68e6; Kc cell number, rep 2 = 1.73e6; S2R+ cell number, rep 1 = 1.35e6; S2R+ cell number, rep 2 = 1.51e6.
For CG1537 [DRSC19662], the values are Kc cell number, rep 1 = 1.56e6; Kc cell number, rep 2 = 1.46e6; S2R+ cell number, rep 1 = 1.06e6; S2R+ cell number, rep 2 = 1.15e6.
Against slou [DRSC17058] the deposit lists Kc cell number, rep 1 = 1.41e6; Kc cell number, rep 2 = 1.39e6; S2R+ cell number, rep 1 = 1.10e6; S2R+ cell number, rep 2 = 1.20e6.
With knock-down of CG4592 [DRSC02761], the screen gave Kc cell number, rep 1 = 1.50e6; Kc cell number, rep 2 = 1.67e6; S2R+ cell number, rep 1 = 1.39e6; S2R+ cell number, rep 2 = 1.26e6.
Knock-down of CG10492 [DRSC02064] gave: Kc cell number, rep 1 = 1.09e6; Kc cell number, rep 2 = 1.17e6; S2R+ cell number, rep 1 = 8.69e5; S2R+ cell number, rep 2 = 8.98e5.
For Pkn [DRSC06809], the entry reads Kc cell number, rep 1 = 9.68e5; Kc cell number, rep 2 = 1.13e6; S2R+ cell number, rep 1 = 9.63e5; S2R+ cell number, rep 2 = 9.00e5.
Pkn [DRSC06810] scored Kc cell number, rep 1 = 1.54e6; Kc cell number, rep 2 = 1.74e6; S2R+ cell number, rep 1 = 1.28e6; S2R+ cell number, rep 2 = 1.36e6.
CG13931 [DRSC08400] scored Kc cell number, rep 1 = 1.48e6; Kc cell number, rep 2 = 1.41e6; S2R+ cell number, rep 1 = 9.93e5; S2R+ cell number, rep 2 = 1.21e6.
After knock-down of CG14817 [DRSC18547], the screen gave Kc cell number, rep 1 = 1.56e6; Kc cell number, rep 2 = 1.55e6; S2R+ cell number, rep 1 = 9.49e5; S2R+ cell number, rep 2 = 1.08e6.

Targets listed so far whose gene name begins with P or p:
Pkn [DRSC06809] — Kc cell number, rep 1 = 9.68e5; Kc cell number, rep 2 = 1.13e6; S2R+ cell number, rep 1 = 9.63e5; S2R+ cell number, rep 2 = 9.00e5
Pkn [DRSC06810] — Kc cell number, rep 1 = 1.54e6; Kc cell number, rep 2 = 1.74e6; S2R+ cell number, rep 1 = 1.28e6; S2R+ cell number, rep 2 = 1.36e6

Additional results follow:
For CR42745 (retired record) [DRSC13756], the entry reads Kc cell number, rep 1 = 1.36e6; Kc cell number, rep 2 = 1.65e6; S2R+ cell number, rep 1 = 1.16e6; S2R+ cell number, rep 2 = 9.51e5.
Knock-down of Snr1 [DRSC12369] resulted in: Kc cell number, rep 1 = 1.24e6; Kc cell number, rep 2 = 1.33e6; S2R+ cell number, rep 1 = 1.21e6; S2R+ cell number, rep 2 = 1.21e6.
Knock-down of jing [DRSC04923] came out at: Kc cell number, rep 1 = 1.71e6; Kc cell number, rep 2 = 1.75e6; S2R+ cell number, rep 1 = 1.30e6; S2R+ cell number, rep 2 = 1.49e6.
jing [DRSC04927] showed Kc cell number, rep 1 = 1.52e6; Kc cell number, rep 2 = 1.55e6; S2R+ cell number, rep 1 = 1.03e6; S2R+ cell number, rep 2 = 1.09e6.
Silencing of jing [DRSC05000] resulted in: Kc cell number, rep 1 = 1.45e6; Kc cell number, rep 2 = 1.52e6; S2R+ cell number, rep 1 = 1.18e6; S2R+ cell number, rep 2 = 1.15e6.
Hsp70Aa + Hsp70Bb + Hsp70Ba + 3 more [DRSC15380] scored Kc cell number, rep 1 = 1.83e6; Kc cell number, rep 2 = 1.84e6; S2R+ cell number, rep 1 = 8.85e5; S2R+ cell number, rep 2 = 1.06e6.
Against CG4036 [DRSC02735], the values are Kc cell number, rep 1 = 1.33e6; Kc cell number, rep 2 = 1.43e6; S2R+ cell number, rep 1 = 1.08e6; S2R+ cell number, rep 2 = 1.20e6.
svr [DRSC17293] showed Kc cell number, rep 1 = 1.11e6; Kc cell number, rep 2 = 1.27e6; S2R+ cell number, rep 1 = 1.06e6; S2R+ cell number, rep 2 = 1.08e6.
svr [DRSC18841] gave Kc cell number, rep 1 = 1.62e6; Kc cell number, rep 2 = 1.58e6; S2R+ cell number, rep 1 = 1.02e6; S2R+ cell number, rep 2 = 1.10e6.
CG14589 [DRSC04866] gave Kc cell number, rep 1 = 1.53e6; Kc cell number, rep 2 = 1.61e6; S2R+ cell number, rep 1 = 1.35e6; S2R+ cell number, rep 2 = 1.44e6.
For C3G [DRSC17745] the deposit lists Kc cell number, rep 1 = 1.78e6; Kc cell number, rep 2 = 1.71e6; S2R+ cell number, rep 1 = 1.06e6; S2R+ cell number, rep 2 = 1.16e6.
C3G [DRSC17929] scored Kc cell number, rep 1 = 1.67e6; Kc cell number, rep 2 = 1.72e6; S2R+ cell number, rep 1 = 1.09e6; S2R+ cell number, rep 2 = 1.28e6.
With knock-down of Ms [DRSC16041], the record shows Kc cell number, rep 1 = 1.45e6; Kc cell number, rep 2 = 1.56e6; S2R+ cell number, rep 1 = 1.08e6; S2R+ cell number, rep 2 = 1.17e6.
After knock-down of MED18 [DRSC18549], the screen gave Kc cell number, rep 1 = 1.64e6; Kc cell number, rep 2 = 1.64e6; S2R+ cell number, rep 1 = 1.04e6; S2R+ cell number, rep 2 = 1.20e6.
With knock-down of mbm [DRSC00319], the screen gave Kc cell number, rep 1 = 1.31e6; Kc cell number, rep 2 = 1.33e6; S2R+ cell number, rep 1 = 9.39e5; S2R+ cell number, rep 2 = 9.31e5.
